The full ranking holds about 33,000 sequences; the median of “E-score (-0.5 to 0.5)” is about -0.0014, and the highest 2% start at about 0.25. The list shows a part of the results.
The sequences below were run against T1, Cad1 (UniProt P24813) (assay: PBM E-score (8-mer binding enrichment) (E-score (-0.5 to 0.5)); higher = stronger / more preferred TF binding). Conditions: protein concentration: 100 nM; construct: GST-full length.
T1 sequence: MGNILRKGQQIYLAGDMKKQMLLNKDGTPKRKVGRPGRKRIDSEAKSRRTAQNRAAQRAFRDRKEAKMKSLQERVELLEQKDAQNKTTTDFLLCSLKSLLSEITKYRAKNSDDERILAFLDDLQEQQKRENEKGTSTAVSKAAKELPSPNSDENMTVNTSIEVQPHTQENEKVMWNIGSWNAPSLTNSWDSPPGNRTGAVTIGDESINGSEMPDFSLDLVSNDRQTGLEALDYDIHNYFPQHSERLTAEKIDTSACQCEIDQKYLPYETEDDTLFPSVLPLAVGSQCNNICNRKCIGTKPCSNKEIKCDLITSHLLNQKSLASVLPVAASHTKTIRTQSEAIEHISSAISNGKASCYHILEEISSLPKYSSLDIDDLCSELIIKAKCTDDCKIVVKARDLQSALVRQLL
Procedure, shortened: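 Detection of bound protein used fluorescent anti-GST, with scans normalised by masliner. The proteins were GST-tagged yeast transcription factors applied at about 100-200 nM to universal all-10-mer Agilent arrays made double-stranded by primer extension. Each ungapped eight-base word, pooled with its reverse complement, was scored with an E-score from the Universal PBM Analysis Suite.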

Row | Sequence | PBM E-score
1 | GATATTTA | 0.115
2 | CGTCAACC | -0.125
3 | TAGTTGCA | -0.05
4 | ACGCTGGA | -0.0353
5 | CTGTTATC | 0.0403
6 | CAGGGAGG | -0.312
7 | CCACGACA | 0.0688
8 | GTTTGACA | 0.0662
9 | CCCGCCGC | -0.0389
10 | TGAAAGAA | 0.253
11 | CTGCAGTA | -0.04
12 | TCTAAAAA | -0.0235
13 | ACCTTTTC | -0.0763
14 | CATCACCA | 0.118
15 | AAGGGGAG | -0.259
16 | CGGGTAGA | 0.0106
17 | ATTTGCGA | 0.0459
18 | CCTCCACG | -0.0764
19 | CCCCGTGC | -0.033
20 | CCTTTATA | -0.188
21 | ACATAACG | 0.12
22 | ACCACTCC | -0.0374

4 entries drawn at random from those above:
Row | Sequence | PBM E-score
5 | CTGTTATC | 0.0403
18 | CCTCCACG | -0.0764
13 | ACCTTTTC | -0.0763
19 | CCCCGTGC | -0.033

(cont.)

Row | Sequence | PBM E-score
23 | ACAGGTAT | 0.0712
24 | AGAAGATG | -0.127
25 | AGCCTTTA | -0.0489
26 | GTGCGAAC | -0.111
27 | ATCGCGGA | 0.0704
28 | CTACAGTC | -0.228
29 | TACGACAA | 0.068
30 | CGCGTACC | -0.0111
31 | AAAAGAAT | 0.257
32 | GACGCGAA | -0.0345
33 | CCATGTTC | -0.0966
34 | AGATCCGG | 0.00585
35 | ACGATAGA | -0.0807
36 | ACGCACGT | -0.179
37 | ACGATCAC | 0.0762
38 | ATGCTGGC | 0.0551
39 | CGAAATTC | -0.0593
40 | AAGTACCT | -0.0692
41 | ACGCCGCG | 0.0407
42 | TACGCGGA | -0.0177
43 | AATAGCCC | -0.148
44 | ATTGGTTA | 0.203

Row | Sequence | PBM E-score
45 | CGGAAATA | 0.23
46 | AACTGCTT | 0.00568
47 | CCCGAACA | 0.027
48 | GGTTGCAA | 0.0552
49 | AGAATGTA | -0.00484
50 | GCCCAGCC | -0.0672
51 | AAAACGGT | -0.0977
52 | ATTTTGAC | 0.135
53 | CTACCGAC | 0.00538
54 | CTGAAACC | 0.0965
55 | GCAAAACC | 0.0369
56 | AAACAAAT | 0.113
57 | AATCACAG | 0.0986
58 | CAATTACG | 0.0074
59 | ACTGATCC | 0.119
60 | AACCACCC | -0.131
61 | GACTATAA | -0.0277
62 | CAGAACGG | -0.119
63 | ACACGTAT | 0.0275
64 | CCCTAGAA | -0.147
65 | CGTCCCGA | -0.168
66 | GTATTTAA | 0.0263

Row | Sequence | PBM E-score
67 | ATTTTCCC | 0.00868
68 | GGCACACC | -0.298
69 | CGACTAAG | -0.00537
70 | TCTGCAGA | 0.0906
71 | TCTACGAA | -0.0885
72 | CCATACTA | 0.0779
73 | CTCGTACC | 0.00387
74 | ATTTGATA | 0.204
75 | AGCATACT | 0.00806
76 | AGATCTAG | -0.0949
77 | ATACACCA | 0.12
78 | ATAGATAT | 0.0925
79 | ACAACCTG | 0.00186
80 | AGTGTCGC | -0.011
81 | AGTGGGAG | -0.0654
82 | ACGTAAGG | 0.0985
83 | GCCTCGAC | -0.224
84 | AGCAAGAG | -0.0637
85 | GCATATGC | 0.092
86 | ACGCCGGC | 0.141

— the supplement of paper PMC3334620
